Reference: publication PMC8316552
These are yes or no findings as the source states them, for the method shown. In cells and extracts the contact can be indirect. Some entries that bind do so weakly or less than the wild type.

Protein sequences, listed by entry. Tags and fused reporters are not part of them. Residues count along the entry.
UniProt Q13501, residues 3-102: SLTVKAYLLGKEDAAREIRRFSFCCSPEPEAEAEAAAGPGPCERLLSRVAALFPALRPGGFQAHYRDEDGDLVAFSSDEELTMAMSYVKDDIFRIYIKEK

Target: Gαq WT (transiently overexpressed) (UniProt P50148)
Experiment: co-IP; CHO cells transfected with HA-p62 and Gαq, with overexpression of GFP-Flag-PB1-p62; anti-HA immunoprecipitation (Fig. 6f)

GFP-Flag-PB1-p62 (from UniProt Q13501 3-102) (domain or fragment)
binding: binds
